# Measurements from the supplement of paper PMC10849652.
# Amino acid sequences for entries named in this document (tags omitted). A change or cut given only in a name is not applied to a line headed by its entry.
# UniProt P07737, whole entry, looked up: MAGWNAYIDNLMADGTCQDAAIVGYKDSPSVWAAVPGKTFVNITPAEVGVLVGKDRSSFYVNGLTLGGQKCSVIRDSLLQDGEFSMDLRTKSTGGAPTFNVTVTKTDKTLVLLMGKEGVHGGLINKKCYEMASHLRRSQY
# UniProt Q15111: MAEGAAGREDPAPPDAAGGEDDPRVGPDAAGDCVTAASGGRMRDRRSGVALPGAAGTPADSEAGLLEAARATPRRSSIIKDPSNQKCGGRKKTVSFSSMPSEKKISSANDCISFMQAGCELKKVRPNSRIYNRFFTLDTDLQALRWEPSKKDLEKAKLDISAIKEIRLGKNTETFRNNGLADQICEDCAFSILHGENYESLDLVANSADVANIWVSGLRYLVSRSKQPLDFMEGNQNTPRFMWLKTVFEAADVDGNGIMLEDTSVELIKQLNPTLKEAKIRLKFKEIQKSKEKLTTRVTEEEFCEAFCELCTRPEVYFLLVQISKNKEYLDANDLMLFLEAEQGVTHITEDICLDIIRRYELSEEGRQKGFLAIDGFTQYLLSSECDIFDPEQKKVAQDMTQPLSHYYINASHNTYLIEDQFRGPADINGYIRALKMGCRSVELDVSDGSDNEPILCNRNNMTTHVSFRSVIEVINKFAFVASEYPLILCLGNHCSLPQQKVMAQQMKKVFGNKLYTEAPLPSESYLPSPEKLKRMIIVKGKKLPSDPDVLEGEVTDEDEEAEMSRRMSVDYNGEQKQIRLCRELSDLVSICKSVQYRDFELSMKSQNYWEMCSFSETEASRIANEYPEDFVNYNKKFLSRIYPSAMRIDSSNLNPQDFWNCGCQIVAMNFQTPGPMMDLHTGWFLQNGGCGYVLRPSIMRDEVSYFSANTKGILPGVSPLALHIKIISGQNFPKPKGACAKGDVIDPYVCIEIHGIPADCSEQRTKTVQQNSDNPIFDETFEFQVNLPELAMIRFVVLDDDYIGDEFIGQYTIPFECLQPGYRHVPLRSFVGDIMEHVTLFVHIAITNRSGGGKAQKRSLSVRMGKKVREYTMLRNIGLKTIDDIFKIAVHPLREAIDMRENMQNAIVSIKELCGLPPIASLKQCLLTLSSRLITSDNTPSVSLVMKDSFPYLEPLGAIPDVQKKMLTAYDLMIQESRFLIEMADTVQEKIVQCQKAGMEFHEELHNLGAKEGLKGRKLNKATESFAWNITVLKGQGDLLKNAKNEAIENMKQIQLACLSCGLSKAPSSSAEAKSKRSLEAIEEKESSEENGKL
# UniProt P48736: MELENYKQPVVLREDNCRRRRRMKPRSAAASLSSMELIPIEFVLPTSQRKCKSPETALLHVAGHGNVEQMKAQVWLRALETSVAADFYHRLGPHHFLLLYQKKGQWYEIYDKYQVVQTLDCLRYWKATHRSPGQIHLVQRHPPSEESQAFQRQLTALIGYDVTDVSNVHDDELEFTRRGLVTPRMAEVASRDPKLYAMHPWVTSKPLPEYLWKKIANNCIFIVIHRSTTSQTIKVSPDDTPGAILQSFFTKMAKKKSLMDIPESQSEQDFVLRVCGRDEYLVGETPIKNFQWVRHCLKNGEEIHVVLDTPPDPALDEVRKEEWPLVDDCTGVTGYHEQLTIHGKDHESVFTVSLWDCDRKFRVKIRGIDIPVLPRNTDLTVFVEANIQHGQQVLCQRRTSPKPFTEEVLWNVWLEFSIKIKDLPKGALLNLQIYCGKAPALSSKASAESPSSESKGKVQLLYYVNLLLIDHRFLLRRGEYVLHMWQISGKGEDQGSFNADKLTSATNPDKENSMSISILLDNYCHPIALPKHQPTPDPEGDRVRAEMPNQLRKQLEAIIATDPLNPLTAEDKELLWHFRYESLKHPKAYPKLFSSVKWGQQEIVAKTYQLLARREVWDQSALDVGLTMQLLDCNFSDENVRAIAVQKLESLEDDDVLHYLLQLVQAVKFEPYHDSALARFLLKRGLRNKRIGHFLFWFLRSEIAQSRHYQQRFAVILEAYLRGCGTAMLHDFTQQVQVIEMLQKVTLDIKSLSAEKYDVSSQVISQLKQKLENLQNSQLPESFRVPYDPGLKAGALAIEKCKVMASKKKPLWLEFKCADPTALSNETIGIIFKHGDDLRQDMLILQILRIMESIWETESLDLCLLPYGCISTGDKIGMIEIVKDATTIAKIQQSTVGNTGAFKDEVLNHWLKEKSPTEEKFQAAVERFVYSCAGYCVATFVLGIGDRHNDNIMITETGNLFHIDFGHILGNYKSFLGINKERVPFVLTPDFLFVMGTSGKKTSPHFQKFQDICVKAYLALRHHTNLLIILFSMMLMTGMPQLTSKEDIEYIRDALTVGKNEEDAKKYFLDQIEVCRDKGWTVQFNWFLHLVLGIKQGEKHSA
# UniProt Q7Z412: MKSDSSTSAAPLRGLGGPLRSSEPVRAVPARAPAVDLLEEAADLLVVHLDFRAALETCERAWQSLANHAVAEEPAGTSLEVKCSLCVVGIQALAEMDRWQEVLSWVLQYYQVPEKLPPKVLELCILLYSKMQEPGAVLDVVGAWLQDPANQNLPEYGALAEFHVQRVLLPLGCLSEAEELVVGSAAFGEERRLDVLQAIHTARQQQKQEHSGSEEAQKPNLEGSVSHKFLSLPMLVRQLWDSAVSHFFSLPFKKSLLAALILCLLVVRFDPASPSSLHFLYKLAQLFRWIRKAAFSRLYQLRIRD
# UniProt Q969N2: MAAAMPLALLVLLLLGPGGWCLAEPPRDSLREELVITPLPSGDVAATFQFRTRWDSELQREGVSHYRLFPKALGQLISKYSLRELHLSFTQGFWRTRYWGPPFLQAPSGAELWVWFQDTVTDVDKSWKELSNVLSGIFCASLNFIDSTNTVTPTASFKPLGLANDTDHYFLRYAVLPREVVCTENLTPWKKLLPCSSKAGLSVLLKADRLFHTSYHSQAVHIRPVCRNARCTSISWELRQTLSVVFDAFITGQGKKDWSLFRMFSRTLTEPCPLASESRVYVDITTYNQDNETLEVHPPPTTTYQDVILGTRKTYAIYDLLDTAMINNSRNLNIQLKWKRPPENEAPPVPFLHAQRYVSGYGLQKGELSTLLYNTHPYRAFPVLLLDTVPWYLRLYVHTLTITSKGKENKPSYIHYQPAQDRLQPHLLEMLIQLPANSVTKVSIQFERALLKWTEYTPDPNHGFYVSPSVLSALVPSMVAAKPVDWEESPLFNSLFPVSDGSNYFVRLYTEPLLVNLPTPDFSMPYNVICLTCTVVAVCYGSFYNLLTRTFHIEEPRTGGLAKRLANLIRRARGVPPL
# UniProt Q8N2A8: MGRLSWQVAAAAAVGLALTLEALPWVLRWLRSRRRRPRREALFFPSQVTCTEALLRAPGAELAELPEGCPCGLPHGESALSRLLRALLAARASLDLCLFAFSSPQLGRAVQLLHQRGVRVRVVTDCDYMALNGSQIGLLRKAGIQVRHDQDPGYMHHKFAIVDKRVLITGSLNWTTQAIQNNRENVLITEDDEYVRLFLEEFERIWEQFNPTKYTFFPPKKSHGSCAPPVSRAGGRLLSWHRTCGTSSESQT
# UniProt Q16513: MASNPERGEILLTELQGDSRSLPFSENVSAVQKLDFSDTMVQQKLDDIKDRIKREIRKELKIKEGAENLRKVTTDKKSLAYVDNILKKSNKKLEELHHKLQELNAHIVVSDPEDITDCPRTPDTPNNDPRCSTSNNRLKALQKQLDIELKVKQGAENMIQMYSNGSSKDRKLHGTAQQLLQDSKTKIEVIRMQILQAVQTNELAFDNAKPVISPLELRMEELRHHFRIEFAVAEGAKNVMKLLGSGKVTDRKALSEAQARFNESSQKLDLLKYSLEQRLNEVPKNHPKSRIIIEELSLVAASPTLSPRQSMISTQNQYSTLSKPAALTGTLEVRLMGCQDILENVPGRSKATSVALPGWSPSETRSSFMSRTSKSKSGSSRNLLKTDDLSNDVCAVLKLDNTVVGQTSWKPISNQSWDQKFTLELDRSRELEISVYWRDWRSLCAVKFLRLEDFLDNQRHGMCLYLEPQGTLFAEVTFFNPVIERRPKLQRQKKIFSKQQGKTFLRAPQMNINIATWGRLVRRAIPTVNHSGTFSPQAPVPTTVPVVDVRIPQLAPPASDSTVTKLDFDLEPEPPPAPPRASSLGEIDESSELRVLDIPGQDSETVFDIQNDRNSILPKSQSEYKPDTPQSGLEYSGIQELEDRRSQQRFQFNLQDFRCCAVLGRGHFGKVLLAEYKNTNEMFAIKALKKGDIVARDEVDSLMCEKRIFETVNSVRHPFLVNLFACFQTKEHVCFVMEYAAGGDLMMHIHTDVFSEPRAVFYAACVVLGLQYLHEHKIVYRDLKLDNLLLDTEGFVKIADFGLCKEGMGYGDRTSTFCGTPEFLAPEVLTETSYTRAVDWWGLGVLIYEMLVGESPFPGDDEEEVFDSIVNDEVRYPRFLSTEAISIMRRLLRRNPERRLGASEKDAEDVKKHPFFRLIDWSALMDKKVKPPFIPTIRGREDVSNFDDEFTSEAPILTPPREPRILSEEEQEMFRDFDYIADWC
# UniProt Q9BRB3: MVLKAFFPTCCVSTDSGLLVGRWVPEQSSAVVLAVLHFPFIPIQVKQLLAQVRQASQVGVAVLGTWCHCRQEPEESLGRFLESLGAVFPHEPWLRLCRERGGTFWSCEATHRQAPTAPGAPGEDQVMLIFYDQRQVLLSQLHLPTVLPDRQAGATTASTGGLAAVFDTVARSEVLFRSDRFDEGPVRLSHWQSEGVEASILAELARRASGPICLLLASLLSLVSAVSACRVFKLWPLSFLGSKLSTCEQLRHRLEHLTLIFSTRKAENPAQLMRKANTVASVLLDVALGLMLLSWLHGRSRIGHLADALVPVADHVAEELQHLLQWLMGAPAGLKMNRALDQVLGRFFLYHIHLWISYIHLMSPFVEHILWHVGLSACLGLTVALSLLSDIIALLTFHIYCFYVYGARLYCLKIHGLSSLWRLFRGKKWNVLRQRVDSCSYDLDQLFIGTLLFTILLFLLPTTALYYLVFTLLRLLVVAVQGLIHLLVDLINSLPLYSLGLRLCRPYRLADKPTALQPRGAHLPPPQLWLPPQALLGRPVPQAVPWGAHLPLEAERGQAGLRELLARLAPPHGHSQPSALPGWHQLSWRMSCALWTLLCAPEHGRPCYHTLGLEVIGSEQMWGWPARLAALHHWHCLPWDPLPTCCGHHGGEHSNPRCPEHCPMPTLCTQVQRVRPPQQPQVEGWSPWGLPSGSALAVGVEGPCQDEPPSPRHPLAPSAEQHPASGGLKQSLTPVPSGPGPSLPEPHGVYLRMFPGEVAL
# UniProt Q9NXJ5: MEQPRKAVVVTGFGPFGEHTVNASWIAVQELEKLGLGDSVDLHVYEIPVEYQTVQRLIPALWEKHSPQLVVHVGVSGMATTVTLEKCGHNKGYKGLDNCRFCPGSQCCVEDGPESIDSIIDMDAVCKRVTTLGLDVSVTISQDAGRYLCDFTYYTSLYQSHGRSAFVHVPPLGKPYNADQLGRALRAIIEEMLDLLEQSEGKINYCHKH
# UniProt P08567: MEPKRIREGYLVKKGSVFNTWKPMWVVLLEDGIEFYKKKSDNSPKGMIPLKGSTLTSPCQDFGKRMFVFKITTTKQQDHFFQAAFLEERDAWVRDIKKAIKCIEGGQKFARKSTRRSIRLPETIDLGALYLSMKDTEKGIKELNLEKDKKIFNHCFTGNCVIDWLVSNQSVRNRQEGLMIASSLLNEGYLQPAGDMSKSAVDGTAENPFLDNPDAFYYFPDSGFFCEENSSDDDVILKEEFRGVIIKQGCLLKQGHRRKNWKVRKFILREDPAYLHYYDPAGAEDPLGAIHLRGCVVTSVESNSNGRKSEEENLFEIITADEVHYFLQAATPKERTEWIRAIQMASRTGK
# UniProt Q00169: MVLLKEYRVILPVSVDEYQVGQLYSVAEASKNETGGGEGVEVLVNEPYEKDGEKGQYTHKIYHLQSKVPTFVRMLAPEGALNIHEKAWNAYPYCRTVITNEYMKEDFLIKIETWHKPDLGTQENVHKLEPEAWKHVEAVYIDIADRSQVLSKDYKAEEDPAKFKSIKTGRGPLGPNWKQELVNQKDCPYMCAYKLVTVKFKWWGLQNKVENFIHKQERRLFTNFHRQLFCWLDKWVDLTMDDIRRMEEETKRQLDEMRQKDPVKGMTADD
# UniProt Q8WUB8: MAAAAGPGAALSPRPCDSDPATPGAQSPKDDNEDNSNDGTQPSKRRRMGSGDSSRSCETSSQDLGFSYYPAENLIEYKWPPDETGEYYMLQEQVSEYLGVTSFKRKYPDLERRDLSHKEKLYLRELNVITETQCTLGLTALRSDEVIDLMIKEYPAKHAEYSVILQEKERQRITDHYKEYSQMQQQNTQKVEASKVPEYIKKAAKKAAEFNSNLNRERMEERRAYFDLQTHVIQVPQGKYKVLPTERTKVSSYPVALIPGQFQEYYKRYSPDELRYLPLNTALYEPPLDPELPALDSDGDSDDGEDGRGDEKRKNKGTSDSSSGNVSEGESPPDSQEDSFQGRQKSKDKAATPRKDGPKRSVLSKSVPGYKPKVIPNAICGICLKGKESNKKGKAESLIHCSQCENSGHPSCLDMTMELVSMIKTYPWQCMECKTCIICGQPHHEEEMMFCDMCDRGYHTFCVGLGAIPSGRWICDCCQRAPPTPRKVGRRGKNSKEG
# This is one part of the list.
# Key:
# Assay in all cases: log2 fold change, soluble protein after heating vs DMSO (PISA); higher = thermal stabilisation; K562 cells, 10 uM, 30 min; active = over 0.2 and 3.5 SD of the protein, either way, in both replicates (recomputed)
# [1] = compound: COC1=CC=C(C=C1)CN2C=CC3=C2C=C(C=C3)C(=O)NO
# In short: (§1)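 For each measurement, 10 μM compound was applied for 30 min to K562 cells at 2×10^6 cells/mL. Aliquots were heated for 3 min across 48°C-58°C, pooled, and extracted in PBS with 0.5% NP-40 at 4°C; the supernatant after 21,000xg for 90 min was soluble protein. This was quantified by TMTpro 16plex LC-MS/MS with channel sums equalised, and thermal stability was reported relative to control samples from duplicates, on a log2 fold-change scale.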
# filanesib = compound: CON(C)C(=O)N1N=C(c2cc(F)ccc2F)S[C@@]1(CCCN)c1ccccc1 [filanesib]
# In short: as §1
# zotarolimus = compound: CO[C@H]1C[C@@H]2CC[C@@H](C)[C@@](O)(O2)C(=O)C(=O)N2CCCC[C@H]2C(=O)O[C@H]([C@H](C)C[C@@H]2CC[C@H](n3cnnn3)[C@H](OC)C2)CC(=O)[C@H](C)/C=C(\C)[C@@H](O)[C@@H](OC)C(=O)[C@H](C)C[C@H](C)/C=C/C=C/C=C/1C [zotarolimus]
# In short: as §1
# idasanutlin = compound: COc1cc(C(=O)O)ccc1NC(=O)[C@@H]1N[C@@H](CC(C)(C)C)[C@](C#N)(c2ccc(Cl)cc2F)[C@H]1c1cccc(Cl)c1F [idasanutlin]
# In short: as §1
# alisertib = compound: COc1cc(Nc2ncc3c(n2)-c2ccc(Cl)cc2C(c2c(F)cccc2OC)=NC3)ccc1C(=O)O [alisertib]
# In short: as §1
# [2] = compound: COc1cc2nc(-c3cc(F)ccc3O)nc(N[C@@H]3CNC[C@H]3C(C)(C)O)c2cc1OC
# In short: as §1
# gefitinib = compound: COc1cc2ncnc(Nc3ccc(F)c(Cl)c3)c2cc1OCCCN1CCOCC1 [gefitinib]
# In short: as §1
# [3] = compound: COc1cccc2cc(-c3nc([C@H]4CC[C@H](C(=O)O)CC4)n4ncnc(N)c34)[nH]c12
# In short: as §1
# lapatinib = compound: CS(=O)(=O)CCNCc1ccc(-c2ccc3ncnc(Nc4ccc(OCc5cccc(F)c5)c(Cl)c4)c3c2)o1 [lapatinib]
# In short: as §1
# pictilisib = compound: CS(=O)(=O)N1CCN(Cc2cc3nc(-c4cccc5[nH]ncc45)nc(N4CCOCC4)c3s2)CC1 [pictilisib]
# In short: as §1
Target,log2 fold change [1],log2 fold change (filanesib),log2 fold change (zotarolimus),log2 fold change (idasanutlin),log2 fold change (alisertib),log2 fold change [2],log2 fold change (gefitinib),log2 fold change [3],log2 fold change (lapatinib),log2 fold change (pictilisib)
PFDN5 (UniProt Q99471),inactive: 0.086,inactive: -0.032,inactive: 0.077,inactive: -0.034,inactive: -0.056,inactive: -0.144,inactive: -0.004,inactive: -0.02,inactive: 0.014,inactive: -0.067
PGD (UniProt P52209),inactive: 0.004,inactive: -0.106,inactive: 0.025,inactive: -0.051,inactive: -0.025,inactive: -0.065,inactive: 0.014,inactive: 0.005,inactive: 0.063,inactive: 0.041
PFKL isoform 2 (UniProt P17858),inactive: 0.019,inactive: 0.015,inactive: -0.006,inactive: -0.022,inactive: -0.008,inactive: 0.037,inactive: -0.002,inactive: 0.073,inactive: -0.02,inactive: 0.015
PGAM5 (UniProt Q96HS1),inactive: 0,inactive: 0.206,inactive: 0.018,inactive: 0.039,inactive: -0.12,inactive: 0.096,inactive: -0.006,inactive: -0.086,inactive: 0,inactive: -0.037
PFN1 (UniProt P07737),inactive: 0.01,inactive: -0.064,inactive: 0.014,inactive: -0.046,inactive: -0.04,inactive: -0.008,inactive: -0.001,inactive: 0.011,inactive: -0.023,inactive: 0.018
PKN1 isoform 2 (UniProt Q16512),inactive: 0.001,inactive: 0.019,inactive: 0.046,inactive: -0.05,inactive: -0.021,inactive: -0.217,inactive: 0.001,inactive: -0.044,inactive: -0.009,inactive: -0.007
PIEZO1 (UniProt Q92508),inactive: 0.021,inactive: 0.066,inactive: -0.048,inactive: 0.031,inactive: -0.051,inactive: 0.006,inactive: 0.026,inactive: 0.057,inactive: 0.043,inactive: 0.114
PIK3R1 (UniProt P27986),inactive: 0.01,inactive: -0.041,inactive: -0.002,inactive: -0.027,inactive: -0.075,inactive: 0.054,inactive: 0.045,inactive: 0.014,inactive: -0.005,inactive: 0.048
PLAA (UniProt Q9Y263),inactive: 0.052,inactive: 0,inactive: 0.044,inactive: -0.063,inactive: 0.018,inactive: 0.031,inactive: 0.007,inactive: 0.001,inactive: -0.008,inactive: -0.001
PLD1 (UniProt Q13393),inactive: 0.003,inactive: 0.11,inactive: 0.04,inactive: 0.064,inactive: -0.081,inactive: -0.244,inactive: -0.036,inactive: -0.131,inactive: 0.161,inactive: -0.045
PLCH1 (UniProt Q4KWH8),inactive: -0.113,inactive: 0.068,inactive: -0.092,inactive: -0.088,inactive: 0,inactive: 0.13,inactive: 0.015,inactive: -0.005,inactive: -0.126,inactive: 0.044
PIK3R2 (UniProt O00459),inactive: -0.066,inactive: -0.089,inactive: -0.046,inactive: 0.012,inactive: 0.026,inactive: 0.002,inactive: 0.014,inactive: 0.114,inactive: -0.054,inactive: 0.19
PLCL1 (UniProt Q15111),inactive: 0.048,inactive: -0.036,inactive: 0.09,inactive: 0.062,inactive: -0.107,,inactive: 0.118,inactive: 0.229,,inactive: -0.073
PIK3R4 (UniProt Q99570),inactive: -0.007,inactive: 0.078,inactive: -0.031,inactive: -0.08,inactive: -0.009,inactive: 0.162,inactive: 0.025,inactive: -0.044,inactive: -0.004,inactive: -0.027
PIK3CG (UniProt P48736),inactive: 0.162,inactive: -0.095,,inactive: 0.106,,,,,,
PIGO (UniProt Q8TEQ8),inactive: -0.035,,inactive: 0.017,,inactive: -0.056,,inactive: -0.036,inactive: 0.003,,
PI4K2B (UniProt Q8TCG2),inactive: -0.035,inactive: -0.059,inactive: -0.014,inactive: -0.034,inactive: -0.059,,inactive: 0.4,inactive: -0.054,,inactive: 0.051
PEX26 (UniProt Q7Z412),inactive: -0.019,,inactive: 0.016,inactive: 0.099,inactive: -0.196,inactive: 0.087,inactive: 0.148,inactive: -0.006,inactive: -0.161,inactive: -0.033

Target,log2 fold change [1],log2 fold change (filanesib),log2 fold change (zotarolimus),log2 fold change (idasanutlin),log2 fold change (alisertib),log2 fold change [2],log2 fold change (gefitinib),log2 fold change [3],log2 fold change (lapatinib),log2 fold change (pictilisib)
PLA2G4B isoform 6 (UniProt P0C869),inactive: 0.126,inactive: 0.013,inactive: 0.032,inactive: -0.134,inactive: 0.083,inactive: -0.175,inactive: 0.196,inactive: -0.057,inactive: 0.007,inactive: 0.024
PHACTR4 isoform 2 (UniProt Q8IZ21),inactive: -0.065,inactive: 0.006,inactive: -0.055,inactive: 0.034,inactive: -0.074,inactive: 0.033,inactive: 0.017,inactive: 0.051,inactive: -0.042,inactive: 0.081
PHC2 isoform 5 (UniProt Q8IXK0),inactive: -0.166,inactive: 0.114,inactive: 0.02,,inactive: -0.062,,,inactive: 0.261,,
PIGT (UniProt Q969N2),inactive: -0.004,inactive: 0,inactive: 0.012,inactive: -0.02,inactive: -0.081,inactive: 0.046,inactive: -0.006,inactive: -0.013,inactive: 0.027,inactive: -0.007
PHC3 isoform 7 (UniProt Q8NDX5),inactive: 0.287,inactive: -0.029,inactive: 0.001,,inactive: -0.121,inactive: -0.03,inactive: -0.153,inactive: 0.203,inactive: 0.05,
PLD6 (UniProt Q8N2A8),inactive: 0.129,inactive: 0.133,,,,inactive: 0.125,,,inactive: -0.001,
PKN2 (UniProt Q16513),inactive: 0.001,inactive: -0.085,inactive: 0.01,inactive: -0.016,,inactive: -0.069,inactive: 0.004,inactive: 0.034,inactive: -0.013,inactive: 0
PIGQ (UniProt Q9BRB3),inactive: 0.033,inactive: -0.454,inactive: 0.078,inactive: -0.075,inactive: -0.216,,inactive: 0.025,inactive: -0.102,,inactive: 0.089
PIGH (UniProt Q14442),inactive: -0.029,,inactive: 0.031,inactive: -0.127,inactive: 0.003,inactive: -0.019,,inactive: 0.038,inactive: -0.009,inactive: 0.04
PKM isoform 2 (UniProt P14618),inactive: 0.141,inactive: 0.04,,inactive: -0.049,inactive: -0.139,inactive: 0.141,inactive: -0.056,inactive: 0.059,inactive: -0.115,inactive: 0.109
PGPEP1 (UniProt Q9NXJ5),inactive: 0.089,inactive: 0.039,inactive: 0.028,inactive: 0.086,inactive: -0.006,inactive: -0.104,,inactive: 0.012,inactive: -0.02,
PIK3CD (UniProt O00329),inactive: -0.016,inactive: 0.029,inactive: -0.098,inactive: 0.105,,inactive: 0.02,,,inactive: -0.018,
PLEK (UniProt P08567),inactive: -0.095,,,,,inactive: -0.208,,,inactive: -0.239,
PITPNA (UniProt Q00169),inactive: -0.102,inactive: -0.051,inactive: -0.03,inactive: -0.047,inactive: -0.007,inactive: 0.072,inactive: 0.028,inactive: 0.001,inactive: -0.043,inactive: 0.106
PIAS4 (UniProt Q8N2W9),inactive: 0.049,,,,inactive: -0.566,inactive: 0.069,,inactive: -0.167,inactive: -0.017,inactive: -0.257
PKP3 isoform 2 (UniProt Q9Y446),inactive: 0.013,inactive: 0.343,inactive: 0.068,inactive: 0.119,inactive: 0.548,inactive: 0.014,,inactive: -0.257,inactive: -0.054,inactive: -0.072
PHLDB1 isoform 2 (UniProt Q86UU1),inactive: 0,,inactive: 0.014,inactive: -0.033,inactive: -0.098,inactive: -0.069,inactive: 0.149,inactive: -0.032,inactive: -0.039,active: -0.498
PHF10 (UniProt Q8WUB8),inactive: 0.041,inactive: 0.051,inactive: 0.034,inactive: 0.183,,inactive: -0.02,,,inactive: 0.108,inactive: -0.174

# Another view of some results above:
Target | log2 fold change [1] | log2 fold change (filanesib) | log2 fold change (zotarolimus) | log2 fold change (idasanutlin) | log2 fold change (alisertib) | log2 fold change [2] | log2 fold change (gefitinib) | log2 fold change [3] | log2 fold change (lapatinib) | log2 fold change (pictilisib)
PIK3CD (UniProt O00329) | inactive: -0.016 | inactive: 0.029 | inactive: -0.098 | inactive: 0.105 |  | inactive: 0.02 |  |  | inactive: -0.018 | 
PLEK (UniProt P08567) | inactive: -0.095 |  |  |  |  | inactive: -0.208 |  |  | inactive: -0.239 | 
